Reference: US9540694 (Johns Hopkins, dated 2017)

Sequences of proteins named here, by UniProt entry; tags and fusion partners are left off.
UniProt P84022, whole entry: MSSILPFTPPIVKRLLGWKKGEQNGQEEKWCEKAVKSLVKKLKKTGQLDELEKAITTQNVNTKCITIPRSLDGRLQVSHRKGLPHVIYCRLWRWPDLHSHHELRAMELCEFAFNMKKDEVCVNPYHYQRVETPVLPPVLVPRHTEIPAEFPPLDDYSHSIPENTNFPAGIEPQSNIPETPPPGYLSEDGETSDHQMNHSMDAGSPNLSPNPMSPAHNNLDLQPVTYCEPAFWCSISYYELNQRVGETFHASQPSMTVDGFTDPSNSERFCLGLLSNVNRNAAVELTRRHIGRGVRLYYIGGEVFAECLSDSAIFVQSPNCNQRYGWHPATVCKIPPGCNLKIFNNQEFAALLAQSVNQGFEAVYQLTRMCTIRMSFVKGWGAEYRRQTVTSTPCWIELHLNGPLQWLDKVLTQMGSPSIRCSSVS

Biological target: T1, Smad3 fused with the C-terminal part of Yellow Fluorescent protein (YFP) (UniProt P84022 1-425)
T1 construct: BiFC construct; not shown: C-terminal part of YFP
Experiment: Bimolecular Fluorescence Complementation in cells
Description: Next, to test the interaction between HEYL and Smad3 in vivo, Bimolecular Fluorescence Complementation analysis was performed. In this assay, N- and C-terminal parts of Yellow Flourescent protein (YFP), were separately fused with HEYL and Smad3, respectively. If HEYL bound to Smad3 in vivo, the N- and C-terminal parts of YFP will come close in close proximity and as a result emit fluorescence. If no interaction takes place between the two molecules, no fluorescence will be emitted.

binding result: no binding
B1: HoxB7 (other, UniProt P09629 1-217, looked up)
chain: MSSLYYANTLFSKYPASSSVFATGAFPEQTSCAFASNPQRPGYGAGSGASFAASMQGLYPGGGGMAGQSAAGVYAAGYGLEPSSFNMHCAPFEQNLSGVCPGDSAKAAGAKEQRDSDLAAESNFRIYPWMRSSGTDRKRGRQTYTRYQTLELEKEFHYNRYLTRRRRIEIAHTLCLTERQIKIWFQNRRMKWKKENKTAGPGTTGQDRAEAEEEEEE
